# Results from one PubChem assay

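293T-iDUX4 cells carrying a ZSCAN4-driven Gaussia luciferase and a tet-on Italica luciferase control; the gap between the two luminescence signals is read after 24 h. The test concentration is not given here. Percent difference between the Gaussia and Italica channels; more negative values mean more selective suppression of the DUX4 reporter, and higher values mean less activity.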

Values are in %. How 0% and 100% were set is not given here. Common to all entries: measured here: selective DUX4 reporter inhibition. Part of the compounds only, not a random draw; the main read-out is not listed here.

- COc1ccccc1NC(=O)N1CCCCN2[C@H](C1)[C@@H](c1ccc(-c3cccc(C#N)c3)cc1)[C@@H]2CO | Gaussia minus Italica difference -5.619%
- O=S(=O)(c1ccccc1)N1CC2(C1)[C@H](c1ccccc1)[C@H](CO)N2CC1CCCC1 | Gaussia minus Italica difference 7.664%
- C[C@H]1CN([C@@H](C)CO)C(=O)c2c(c3ccccc3n2C)-c2ccccc2CO[C@@H]1CN(C)C(=O)Cc1ccccc1 | Gaussia minus Italica difference -1.162%
- O=C(C[C@@H]1CC[C@H](NC(=O)Nc2cc(F)ccc2F)[C@@H](CO)O1)Nc1ccc(-c2ccccc2)cc1 | Gaussia minus Italica difference 10.9%
- O=C1CN(S(=O)(=O)Cc2ccccc2)C[C@@H]2[C@H](c3ccc(C#Cc4ccccc4)cc3)[C@H](CO)N12 | Gaussia minus Italica difference 3.32%
- COc1ccccc1NC(=O)N(C)C[C@@H]1OCc2ccccc2-c2c(n(C)c3ccccc23)C(=O)N([C@@H](C)CO)C[C@H]1C | Gaussia minus Italica difference -15.48%
- N#C[C@@H]1[C@H](c2ccccc2-c2ccccc2)[C@@H](CO)N1c1ncc(-c2ccccc2)s1 | Gaussia minus Italica difference -0.0756%
- COc1ccc2c3c([nH]c2c1)[C@H](CO)N(CC1CC1)CC31CCN(C(=O)c2ccccc2F)CC1 | Gaussia minus Italica difference -5.401%
- COc1cccc(-c2ccc3c(c2)[C@H]2[C@H](CCN2C(=O)C2CCOCC2)[C@H](CO)N3)c1 | Gaussia minus Italica difference -14.66%
- COc1ccc2c3c([nH]c2c1)[C@@H](CO)N(Cc1ccc(F)cc1)CC31CCN(C(=O)NC(C)C)CC1 | Gaussia minus Italica difference -9.322%
- CCCC#Cc1ccc([C@H]2[C@@H](CO)N3CCCCN(S(=O)(=O)Cc4ccccc4)C[C@@H]23)cc1 | Gaussia minus Italica difference -12.05%
- O=S(=O)(c1ccc(F)cc1)N1CCCCN2[C@H](CO)[C@H](c3ccc(C4=CCCCC4)cc3)[C@H]2C1 | Gaussia minus Italica difference -23.13%
- C/C=C/c1ccc(C2[C@@H]3CN(C(=O)Nc4ccc(C(F)(F)F)cc4)C[C@H]2N3)cc1 (stereo partly shown) | Gaussia minus Italica difference 6.121%
- C[C@H](CO)N1C[C@H](C)[C@H](CN(C)Cc2ccc(C(=O)Nc3ccccc3N)cc2)OCc2cn(nn2)CCCC1=O | Gaussia minus Italica difference -10.5%
- O=C(Nc1ccc2c(c1)[C@@H]1C[C@H](CC(=O)N3CCc4ccccc4C3)O[C@@H](CO)[C@@H]1O2)c1ccc2c(c1)OCO2 | Gaussia minus Italica difference -2.761%
- O=C(C[C@@H]1CC[C@@H]2[C@H](COC[C@@H](O)CN2C(=O)Nc2ccc(Cl)cc2)O1)NCC1CCCCC1 | Gaussia minus Italica difference -3.161%
- COc1cccc(S(=O)(=O)N2CCCCN3[C@H](CO)[C@@H](c4ccc(C#CCC(C)C)cc4)[C@@H]3C2)c1 | Gaussia minus Italica difference -9.945%
- CCCNC(=O)N1CC2(CN(Cc3ccc(OC)cc3)C2)c2c(n(C)c3cc(OC)ccc23)[C@H]1CO | Gaussia minus Italica difference -16.55%
- Fc1ccccc1-c1ccc(C2[C@@H]3CN(Cc4ccccc4)C[C@H]2N3)cc1 (stereo partly shown) | Gaussia minus Italica difference -1.078%
- COc1ccccc1S(=O)(=O)N(C)C[C@H]1OCc2ccccc2-c2c(n(C)c3ccccc23)C(=O)N([C@H](C)CO)C[C@@H]1C | Gaussia minus Italica difference -2.109%
- COc1ccccc1CNC(=O)C[C@@H]1CC[C@@H]2[C@H](COC[C@H](O)CN2Cc2cccc(-c3ccncc3)c2)O1 | Gaussia minus Italica difference 0.8227%
- CCC(=O)N1CC2(C1)CN(Cc1cccc(Cl)c1)[C@H](CO)c1[nH]c3cc(OC)ccc3c12 | Gaussia minus Italica difference -18.35%
- C[C@H]1CN([C@@H](C)CO)C(=O)c2ccccc2-c2ccccc2CO[C@@H]1CN(C)Cc1ccccc1C(F)(F)F | Gaussia minus Italica difference -8.721%
- O=C(C1CCOCC1)N1CC(=O)N2[C@@H](CO)[C@H](c3ccc(C#Cc4cccc(F)c4)cc3)[C@@H]2C1 | Gaussia minus Italica difference -7.628%
- C[C@H](CO)N1C[C@H](C)[C@@H](CN(C)Cc2ccc(C(=O)Nc3ccccc3N)cc2)OCc2cn(nn2)CCCC1=O | Gaussia minus Italica difference -15.69%
- O=C(Cc1ccncc1)N1CCCCN2[C@@H](CO)[C@H](c3ccc(C#Cc4ccccc4F)cc3)[C@@H]2C1 | Gaussia minus Italica difference -8.999%
- Cc1ccccc1-c1ccc(C2[C@@H]3CN(C(=O)Nc4ccc(F)cc4)C[C@H]2N3)cc1 (stereo partly shown) | Gaussia minus Italica difference -10.21%
- C[C@H](NC(=O)C[C@H]1CC[C@H]2[C@@H](COC[C@H](O)CN2Cc2ccc(C(F)(F)F)cc2)O1)c1ccccc1 | Gaussia minus Italica difference -15.55%
- COc1ccc(S(=O)(=O)N2CCCCN3[C@H](CO)[C@H](c4ccc(C#CC(C)C)cc4)[C@@H]3C2)cc1 | Gaussia minus Italica difference 0.8836%
- CC(C)CC#Cc1ccc([C@H]2[C@@H](CO)N3CCCCN(C(=O)Nc4ccccc4)C[C@H]23)cc1 | Gaussia minus Italica difference 8.749%
- CCCNC(=O)N1CC2(C1)[C@H](c1ccccc1)[C@@H](CO)N2Cc1ccccc1 | Gaussia minus Italica difference -10.39%
- CN(C)C(=O)c1cccc(-c2ccc3c(c2)[C@H]2[C@H](CCN2Cc2ccccc2F)[C@H](CO)N3)c1 | Gaussia minus Italica difference 14.08%
- COc1ccc2c3c([nH]c2c1)[C@H](CO)N(Cc1cccc(F)c1)CC31CCN(CC2CC2)CC1 | Gaussia minus Italica difference 40.28%
- COc1ccc2c3c(n(C)c2c1)[C@H](CO)N(C)CC31CCN(S(=O)(=O)c2cccc(C)c2)CC1 | Gaussia minus Italica difference 2.395%
- O=C(C[C@@H]1CC[C@H]2[C@@H](COC[C@@H](O)CN2S(=O)(=O)c2cccc(Cl)c2)O1)Nc1ccc(-c2ccccc2)cc1 | Gaussia minus Italica difference -0.6954%
- O=C(C[C@H]1C[C@H]2c3cc(NC(=O)Nc4ccccc4F)ccc3O[C@H]2[C@@H](CO)O1)NCCc1ccccc1 | Gaussia minus Italica difference -13.66%

Some entries from above, unchanged:

{"compound": "COc1ccc(S(=O)(=O)N2CCCCN3[C@H](CO)[C@H](c4ccc(C#CC(C)C)cc4)[C@@H]3C2)cc1", "Gaussia minus Italica difference (%)": "0.8836"}
{"compound": "CCC(=O)N1CC2(C1)CN(Cc1cccc(Cl)c1)[C@H](CO)c1[nH]c3cc(OC)ccc3c12", "Gaussia minus Italica difference (%)": "-18.35"}
{"compound": "Cc1ccccc1-c1ccc(C2[C@@H]3CN(C(=O)Nc4ccc(F)cc4)C[C@H]2N3)cc1", "stereo": "stereo partly shown", "Gaussia minus Italica difference (%)": "-10.21"}
{"compound": "C[C@H](CO)N1C[C@H](C)[C@@H](CN(C)Cc2ccc(C(=O)Nc3ccccc3N)cc2)OCc2cn(nn2)CCCC1=O", "Gaussia minus Italica difference (%)": "-15.69"}

Data taken from PubChem BioAssay AID1224904, deposited by Broad Institute (2016).